From the supplement of paper PMC11637464
Where a name gives a salt, the structure may show the parent alone. Some of the results follow. Single values are uncertain, as repeats are few or missing.

Tested on: primary mouse Muller glia with Ascl1 overexpression
Test: Neuronal cell count fold change vs Ascl1-only control (log2 fold change); higher = more neurogenesis
Conditions: collection day: 2
Procedure: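 Primary P11 mouse Muller glia carrying dox-inducible Ascl1 were treated with Tocriscreen Stem Cell Library compounds at 0.1, 1 or 10 uM together with doxycycline for 5 days, then profiled by sci-Plex hashing and sci-RNA-seq2. Cells were annotated by marker genes and cell-type counts per well were size-factor adjusted. Read-outs are the log2 fold change of Neuronal (NeuPre + bipolar) and ProL cell counts versus the Ascl1-only control wells of the same collection day, plus the raw number of recovered cells per well. There is one well per dose, and wells with fewer than 20 cells were discarded.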

SMILES: Cc1sc2c(c1C)C(c1ccc(Cl)cc1)=N[C@@H](CC(N)=O)c1nnc(C)n1-2
- Neuronal cell count fold change (0.1 µM): -3.7
- Neuronal cell count fold change (1 µM): -3.7
- Neuronal cell count fold change (10 µM): -3.7

SMILES: COc1ccc(N(C(=O)Oc2c(C)cccc2C)c2ccnc(Nc3ccc(N4CCN(C)CC4)cc3)n2)c(OC)c1
- Neuronal cell count fold change (0.1 µM): 0.107
- Neuronal cell count fold change (1 µM): 0.943

SMILES: N[C@@H]1C[C@H]1c1ccccc1 [Tranylcypromine hydrochloride]
- Neuronal cell count fold change (0.1 µM): -0.893
- Neuronal cell count fold change (1 µM): -2.12
- Neuronal cell count fold change (10 µM): -1.38
